This is an account of results in publication PMC7819943, “Rice protein-binding microarrays: a tool to detect cis-acting elements near promoter regions in rice”.

By UniProt entry, the sequences of proteins in these tests, tags left out.
UniProt Q0JBA9, entry or part of it: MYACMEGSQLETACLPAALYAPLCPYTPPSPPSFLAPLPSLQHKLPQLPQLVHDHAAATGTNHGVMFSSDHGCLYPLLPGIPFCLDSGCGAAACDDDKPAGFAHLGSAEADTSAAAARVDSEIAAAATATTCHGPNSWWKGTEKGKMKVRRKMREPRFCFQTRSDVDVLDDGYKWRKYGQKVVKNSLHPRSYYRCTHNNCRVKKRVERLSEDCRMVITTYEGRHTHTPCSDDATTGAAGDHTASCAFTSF

The other results are listed elsewhere or left out.

For the assay, the target named is OsWRKY34 (Oryza sativa, UniProt Q0JBA9 1-250). Description: protein-binding microarray (RPBM); PBS, 2% BSA, 51.3 ng/ul salmon testes DNA, 50 uM zinc acetate, 200 nM TF, 25 C, 1 h; high values mean tight binding. The following applies: protein: recombinant; tags: N-terminal polyhistidine and DsRed monomer fusion (pET32a); label: CyDye5-dUTP incorporated in the synthesized complementary strand; 3' TTTTT single-stranded linker to array surface; dsDNA, one strand shown. The method, boiled down:
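Transcription factors were made in E. coli BL21-CodonPlus as N-terminal fusions to a polyhistidine tag and DsRed, then purified on Ni–NTA. After primer extension with Cy5-dUTP and blocking with 2% BSA, a custom Agilent array was exposed for 1 h at 25 °C to 200 nM protein in PBS, 2% BSA, salmon testes DNA and 50 µM zinc acetate. Washed arrays were scanned on an Axon 4000B, and the binding signal is per-feature fluorescence intensity in arbitrary units.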
Take “CAGTGTATATTTCAGTGTATATTTGGTAGATTTGGTAGTACGGAGTCACCTAGTGCAG”: the binding signal was 8310 fluorescence intensity (a.u.).
Under “CCTATATGTATTGTTGCAGCATCTCTACTCTCTACTACTTCGGAGTCACCTAGTGCAG” stands 10000 fluorescence intensity (a.u.).
On to “GGAAACGGCCGTGCGGCATGGATCTGGGCGGGAGGAGCAACGGAGTCACCTAGTGCAG”, for which the binding signal is 8930 fluorescence intensity (a.u.).
Under “ACGTGTTTGACCATTCGTTTTATTCAAATCATTTAAGTAACGGAGTCACCTAGTGCAG” stands 9230 fluorescence intensity (a.u.); under “TCCACTCTATGTTCCACCACAACCCCTTCATTTCATGGTTCGGAGTCACCTAGTGCAG”, 8650 fluorescence intensity (a.u.).
The figure for “GCACCGTACTGTGCACGTCATCCATTTGTCTGTTTGTGTTCGGAGTCACCTAGTGCAG” is 9380 fluorescence intensity (a.u.); for “CCATATTTCGACTTCTAGCAGTACCATTCTTCCTCTGAAACGGAGTCACCTAGTGCAG” it is 8400 fluorescence intensity (a.u.).
Under “CCGAGATACCCGCCACCACTCCTCTCAGTTTCAATCTATACGGAGTCACCTAGTGCAG” stands 8910 fluorescence intensity (a.u.).
“TAGCGTTCAACGAATCGTCCCGCGTCGGATGTCTGTTTTTCGGAGTCACCTAGTGCAG”: the binding signal is 8870 fluorescence intensity (a.u.).
Under “GTTTATTCCCTTGTGTTGGTTGTTGCACATGTCCCTTTCTCGGAGTCACCTAGTGCAG” stands 8900 fluorescence intensity (a.u.).
The figure for “CTGTTCTTGGTAGCATTGACCCTGCACCTTTTGTTCCATTCGGAGTCACCTAGTGCAG” is 9160 fluorescence intensity (a.u.).
Regarding “ACGAACTAGAGCTACATACTTTACCCGTTTTTCCTCCTTACGGAGTCACCTAGTGCAG”, the binding signal was 10300 fluorescence intensity (a.u.).
For the sequence “ATGGTGGAGAGGGGAAAAAGCTAGGGTTTGCAAGAAGTTACGGAGTCACCTAGTGCAG”, the binding signal was 9620 fluorescence intensity (a.u.).
The figure for “GGATAACACACATTAGCCCTGCCTCGCGTCATACTGAGTACGGAGTCACCTAGTGCAG” is 8540 fluorescence intensity (a.u.); for “GCTATTTCTCTTTGCCAATCACTTCCCCTTTCTTTTGTGACGGAGTCACCTAGTGCAG” it is 9240 fluorescence intensity (a.u.).
As for “ATTTTCCACACTTTGGCCTGGTTTAGTTCCTAAATTTTTCCGGAGTCACCTAGTGCAG”, the binding signal is 11900 fluorescence intensity (a.u.).
For the sequence “CTCCACCCTATCGCGCCTTCTCTTCCATCGCCACGGCCCACGGAGTCACCTAGTGCAG”, the binding signal is 8850 fluorescence intensity (a.u.).
“ATTGGTATTGCTGATGAACATTTTGGTGCTGTCGTACGACCGGAGTCACCTAGTGCAG”: the binding signal was 10600 fluorescence intensity (a.u.).
The figure for “TTAGATCGAACGGTGATGGTATTGGCCCATGGGCCTCATTCGGAGTCACCTAGTGCAG” is 8590 fluorescence intensity (a.u.).
Under “TTTTGATCATCCATTTTGTCTATTATCTGTGTCTAACTAACGGAGTCACCTAGTGCAG” stands 8710 fluorescence intensity (a.u.).
Under “TTTATGCGTGACTTACCTTTTTATTTATTTTCATATTTTTCGGAGTCACCTAGTGCAG” stands 10500 fluorescence intensity (a.u.).
For “TGCCGCCGTTCTTGTCCGCCGCCGCTGCCCGACGCCAAATCGGAGTCACCTAGTGCAG”, the binding signal was 8140 fluorescence intensity (a.u.).
Under “TCTCGATTCATGATTCTCTCTTTTATAGGTGCTGTCCTCTCGGAGTCACCTAGTGCAG” stands 9000 fluorescence intensity (a.u.); under “TCCACCGTTCTTCTCGTTCAATCGGCGGGCAACTGCTGTTCGGAGTCACCTAGTGCAG”, 8400 fluorescence intensity (a.u.); under “GGTAATTTGTTTCTCCATCTTTCTTTCATTAGTGCTTGACCGGAGTCACCTAGTGCAG”, 12500 fluorescence intensity (a.u.).
Take “GCGCTCATGGAGGGCTGGTTGAGGAGGGGATTGGGTGCTTCGGAGTCACCTAGTGCAG”: the binding signal is 9930 fluorescence intensity (a.u.).
The figure for “GTCATTTCTCTATTTTTTCCCGCGTTTTGCTATCATCTGTCGGAGTCACCTAGTGCAG” is 16200 fluorescence intensity (a.u.); for “CTTGCCATCTTTCACCATACTTCTAAATACCCAAAATTCTCGGAGTCACCTAGTGCAG” it is 8290 fluorescence intensity (a.u.); for “AATCCCTCATCCGAGTAATCTCCTATCCCTTGGTAACAATCGGAGTCACCTAGTGCAG” it is 8410 fluorescence intensity (a.u.).
Under “GTGCATGGATCATCTTCCTTTTCCCCTCTGCGCTCGGCGCCGGAGTCACCTAGTGCAG” stands 8340 fluorescence intensity (a.u.); under “TAGTGGTCAAAGTTAAAAATGTTTGACTTGTCACTGTGCTCGGAGTCACCTAGTGCAG”, 9180 fluorescence intensity (a.u.).
The figure for “CACCCACCACCTCCCTTGTCGTCTCCGCGCTTCGCTCCGGCGGAGTCACCTAGTGCAG” is 8890 fluorescence intensity (a.u.); for “AATTATTTTATAAATGTGTTATCCTTAAGGGGTCTTTTTTCGGAGTCACCTAGTGCAG” it is 10200 fluorescence intensity (a.u.); for “GCTGAGGCCGGCTTCCACCGCCGGTGAGGTGATCACCCGCCGGAGTCACCTAGTGCAG” it is 8060 fluorescence intensity (a.u.).
Take “GATCTAAACATGGCCTTAATTTATCGTCATAATTAAATGACGGAGTCACCTAGTGCAG”: the binding signal is 8420 fluorescence intensity (a.u.).
Under “ATTTCTAACTTTTTTTCCCATTGTTTTGTTTGTCTTATTTCGGAGTCACCTAGTGCAG” stands 8920 fluorescence intensity (a.u.).
Under “TACGATCCCTACCGTCCAGTGTCCACCACGATTTCACCCTCGGAGTCACCTAGTGCAG” stands 10000 fluorescence intensity (a.u.); under “CTTCCTAGTAACTTCTCTCTTTGTGCGTTAGATCATTATTCGGAGTCACCTAGTGCAG”, 8240 fluorescence intensity (a.u.); under “TTGAGAGCTGGAGGCGCAGGCTGGGATCGGCGGAGCCATGCGGAGTCACCTAGTGCAG”, 63200 fluorescence intensity (a.u.).
Under “CACTAATTACTTTCGCATCCTACGTGCATTTACTTAATCCCGGAGTCACCTAGTGCAG” stands 8760 fluorescence intensity (a.u.); under “GGTCCTCAAATCATTTGTTGCTTGGGGCTGTTTCTGTTTGCGGAGTCACCTAGTGCAG”, 11300 fluorescence intensity (a.u.).
For “GCGCCTGTTTTCATCTCATCCTCCTCTCTTGTGGTTTCTTCGGAGTCACCTAGTGCAG”, the binding signal is 9450 fluorescence intensity (a.u.).
